{"source": "PubChem BioAssay AID248", "about": "(DTP/NCI, 2004)", "tested_on": "L1210 leukemia ip in BDF1 mice, survival T/C", "assay": "NCI In Vivo Anticancer Drug Screen. Data for tumor model L1210 Leukemia (intraperitoneal) in B6D2F1 (BDF1) mice", "details": "T/C endpoint: median survival time, higher T/C = longer survival", "note": "The list is a part of this screen's results and no random one: it is rich in T/C values a quarter to a half above the control, in often repeated tests (any T/C) and in doses without a T/C. Other doses and runs of a compound stand elsewhere. T/C: endpoint of the treated group in % of that of the vehicle group. Some doses have a count of surviving animals in place of a T/C: the source files T/C as zero there, which appears to mark a toxic dose or a test without result, not a measured value. Some doses without a T/C left all or most animals alive at the check, yet need not have been tolerated: survival well below the control is almost never listed, so the zero probably covers shortened survival too. Survivors were counted at the toxicity check, usually on the fifth day, unless a day is given; later deaths do not show. Schedules are NCI's codes, read here as Q, the interval in days (D) or hours (H), X, the number of doses. Some entries were tested several times; their values stand side by side, smallest first. Where survival is the endpoint, the PubChem record calls one and a half times the control and up active, and a quarter to a half above the control has no call in these data; cut-offs in other NCI protocols can differ. Additions like (4×) give the number of equal values in this list. Some T/C values are followed by the survivors on the day toxicity was checked, most often the fifth; without a count, all were alive then.", "data": [{"molecule": "COc1cccc2c1C(=O)c1c(O)c3c(c(O)c1C2=O)C[C@@](O)(C(=O)CO)C[C@@H]3OC1CC(N)C(O)C(C)O1", "note": "(some centres undefined)", "values": [{"measurement": "T/C", "setting": "dose: 1.08 mg/kg/injection, schedule: Q03HX008 (sc), vehicle: water", "value": "125 % of control"}, {"measurement": "T/C", "setting": "dose: 1.08 mg/kg/injection, schedule: Q03HX016 (ip), vehicle: water, evaluated on day 5", "value": "157 % of control"}, {"measurement": "T/C", "setting": "dose: 1.08 mg/kg/injection, schedule: Q03HX016 (ip), vehicle: water, evaluated on day 46", "value": "155 % of control"}, {"measurement": "T/C", "setting": "dose: 1.08 mg/kg/injection, schedule: Q03HX016 (ip), vehicle: water, evaluated on day 60", "value": "109 and 122 % of control"}, {"measurement": "T/C", "setting": "dose: 1.08 mg/kg/injection, schedule: Q03HX024 (ip), vehicle: water, evaluated on day 7", "value": "114 and 132 % of control"}, {"measurement": "T/C", "setting": "dose: 1.08 mg/kg/injection, schedule: Q03HX024 (ip), vehicle: water, evaluated on day 32", "value": "114 % of control"}, {"measurement": "T/C", "setting": "dose: 1.08 mg/kg/injection, schedule: Q03HX024 (ip), vehicle: water, evaluated on day 60", "value": "100 and 113 % of control [7 of 8 alive]"}, {"measurement": "T/C", "setting": "dose: 1.08 mg/kg/injection, schedule: Q03HX024 (ip), vehicle: water, evaluated on day 63", "value": "129 % of control"}, {"measurement": "T/C", "setting": "dose: 1.08 mg/kg/injection, schedule: Q04DX003 (ip), vehicle: water, evaluated on day 5", "value": "58, 118, 127, 134 % of control"}, {"measurement": "T/C", "setting": "dose: 1.08 mg/kg/injection, schedule: Q04DX003 (ip), vehicle: water, evaluated on day 7", "value": "104 % of control (2×)"}, {"measurement": "T/C", "setting": "dose: 1.08 mg/kg/injection, schedule: Q04DX003 (ip), vehicle: water, evaluated on day 31", "value": "104 % of control"}, {"measurement": "T/C", "setting": "dose: 1.08 mg/kg/injection, schedule: Q04DX003 (ip), vehicle: water, evaluated on day 40", "value": "104 % of control"}, {"measurement": "T/C", "setting": "dose: 1.08 mg/kg/injection, schedule: Q04DX003 (ip), vehicle: water, evaluated on day 60", "value": "115, 127, 140 % of control"}, {"measurement": "survivor count", "setting": "dose: 1.08 mg/kg/injection, schedule: Q04DX003 (ip), vehicle: water", "value": "8 of 8"}, {"measurement": "T/C", "setting": "dose: 1.1 mg/kg/injection, schedule: Q04DX003 (ip), vehicle: water, evaluated on day 60", "value": "126 % of control"}, {"measurement": "T/C", "setting": "dose: 1.1 mg/kg/injection, schedule: Q04DX003 (ip), vehicle: water, evaluated on day 90", "value": "138 % of control"}, {"measurement": "T/C", "setting": "dose: 1.17 mg/kg/injection, schedule: Q03HX008 (ip), vehicle: water", "value": "133 % of control"}, {"measurement": "T/C", "setting": "dose: 1.25 mg/kg/injection, schedule: Q04DX003 (ip), vehicle: water, evaluated on day 5", "value": "131 % of control"}, {"measurement": "T/C", "setting": "dose: 1.25 mg/kg/injection, schedule: Q04DX003 (ip), vehicle: water, evaluated on day 46", "value": "133 % of control"}, {"measurement": "T/C", "setting": "dose: 1.5 mg/kg/injection, schedule: Q01DX005 (ip), vehicle: other, evaluated on day 5", "value": "126 % of control"}, {"measurement": "T/C", "setting": "dose: 1.5 mg/kg/injection, schedule: Q01DX005 (ip), vehicle: other, evaluated on day 31", "value": "126 % of control"}, {"measurement": "T/C", "setting": "dose: 1.5 mg/kg/injection, schedule: Q03HX008 (ip), vehicle: water, evaluated on day 5", "value": "79, 93, 139, 144, 148 % of control"}, {"measurement": "T/C", "setting": "dose: 1.5 mg/kg/injection, schedule: Q03HX008 (ip), vehicle: water, evaluated on day 7", "value": "134 % of control"}, {"measurement": "T/C", "setting": "dose: 1.5 mg/kg/injection, schedule: Q03HX008 (ip), vehicle: water, evaluated on day 20", "value": "148 % of control"}, {"measurement": "T/C", "setting": "dose: 1.5 mg/kg/injection, schedule: Q03HX008 (ip), vehicle: water, evaluated on day 29", "value": "139 % of control"}, {"measurement": "T/C", "setting": "dose: 1.5 mg/kg/injection, schedule: Q03HX008 (ip), vehicle: water, evaluated on day 30", "value": "93 [6 of 8 alive], 134, 144 % of control"}, {"measurement": "survivor count", "setting": "dose: 1.5 mg/kg/injection, schedule: Q03HX008 (ip), vehicle: water", "value": "7 of 8"}, {"measurement": "T/C", "setting": "dose: 1.8 mg/kg/injection, schedule: Q01DX005 (ip), vehicle: water, evaluated on day 5", "value": "120 % of control"}, {"measurement": "T/C", "setting": "dose: 1.8 mg/kg/injection, schedule: Q01DX005 (ip), vehicle: water, evaluated on day 35", "value": "135 % of control"}, {"measurement": "T/C", "setting": "dose: 1.8 mg/kg/injection, schedule: Q01DX005 (ip), vehicle: water, evaluated on day 60", "value": "105 and 120 % of control"}, {"measurement": "T/C", "setting": "dose: 1.8 mg/kg/injection, schedule: Q01DX005 (ip), vehicle: water, evaluated on day 90", "value": "127 % of control"}, {"measurement": "T/C", "setting": "dose: 1.8 mg/kg/injection, schedule: Q03HX008 (ip), vehicle: water, evaluated on day 5", "value": "51, 78, 154, 158 % of control"}, {"measurement": "T/C", "setting": "dose: 1.8 mg/kg/injection, schedule: Q03HX008 (ip), vehicle: water, evaluated on day 7", "value": "111, 116, 126, 151 % of control"}, {"measurement": "T/C", "setting": "dose: 1.8 mg/kg/injection, schedule: Q03HX008 (ip), vehicle: water, evaluated on day 20", "value": "116 % of control"}, {"measurement": "T/C", "setting": "dose: 1.8 mg/kg/injection, schedule: Q03HX008 (ip), vehicle: water, evaluated on day 30", "value": "170 % of control"}, {"measurement": "T/C", "setting": "dose: 1.8 mg/kg/injection, schedule: Q03HX008 (ip), vehicle: water, evaluated on day 32", "value": "126 % of control"}, {"measurement": "T/C", "setting": "dose: 1.8 mg/kg/injection, schedule: Q03HX008 (ip), vehicle: water, evaluated on day 33", "value": "140 % of control"}, {"measurement": "T/C", "setting": "dose: 1.8 mg/kg/injection, schedule: Q03HX008 (ip), vehicle: water, evaluated on day 35", "value": "220 % of control"}, {"measurement": "T/C", "setting": "dose: 1.8 mg/kg/injection, schedule: Q03HX008 (ip), vehicle: water, evaluated on day 46", "value": "155 % of control"}, {"measurement": "T/C", "setting": "dose: 1.8 mg/kg/injection, schedule: Q03HX008 (ip), vehicle: water, evaluated on day 60", "value": "109, 111 [7 of 8 alive], 113 % of control"}, {"measurement": "T/C", "setting": "dose: 1.8 mg/kg/injection, schedule: Q03HX008 (ip), vehicle: water, evaluated on day 63", "value": "141 % of control"}, {"measurement": "survivor count", "setting": "dose: 1.8 mg/kg/injection, schedule: Q03HX008 (ip), vehicle: water", "value": "4 of 8 and 8 of 8"}, {"measurement": "T/C", "setting": "dose: 1.8 mg/kg/injection, schedule: Q03HX008 (sc), vehicle: water", "value": "135 % of control"}, {"measurement": "T/C", "setting": "dose: 1.8 mg/kg/injection, schedule: Q03HX016 (ip), vehicle: water, evaluated on day 5", "value": "135 % of control"}, {"measurement": "T/C", "setting": "dose: 1.8 mg/kg/injection, schedule: Q03HX016 (ip), vehicle: water, evaluated on day 46", "value": "133 % of control"}, {"measurement": "T/C", "setting": "dose: 1.8 mg/kg/injection, schedule: Q03HX016 (ip), vehicle: water, evaluated on day 60", "value": "100 and 118 % of control [6 of 8 alive]"}, {"measurement": "T/C", "setting": "dose: 1.8 mg/kg/injection, schedule: Q03HX024 (ip), vehicle: water, evaluated on day 7", "value": "124 and 127 % of control"}, {"measurement": "T/C", "setting": "dose: 1.8 mg/kg/injection, schedule: Q03HX024 (ip), vehicle: water, evaluated on day 32", "value": "124 % of control"}, {"measurement": "T/C", "setting": "dose: 1.8 mg/kg/injection, schedule: Q03HX024 (ip), vehicle: water, evaluated on day 60", "value": "109 % of control"}, {"measurement": "T/C", "setting": "dose: 1.8 mg/kg/injection, schedule: Q03HX024 (ip), vehicle: water, evaluated on day 63", "value": "129 % of control"}, {"measurement": "survivor count", "setting": "dose: 1.8 mg/kg/injection, schedule: Q03HX024 (ip), vehicle: water", "value": "8 of 8"}, {"measurement": "T/C", "setting": "dose: 1.8 mg/kg/injection, schedule: Q04DX003 (ip), vehicle: water, evaluated on day 5", "value": "44, 99, 117, 126 % of control"}, {"measurement": "T/C", "setting": "dose: 1.8 mg/kg/injection, schedule: Q04DX003 (ip), vehicle: water, evaluated on day 7", "value": "99 and 104 % of control (2×)"}, {"measurement": "T/C", "setting": "dose: 1.8 mg/kg/injection, schedule: Q04DX003 (ip), vehicle: water, evaluated on day 31", "value": "104 % of control"}]}]}
